Experimental data as given in patent US8946224B2, “Substituted [1,2,4]triazolo[4,3-A]pyrazines for medicaments and pharmaceutical compositions” (Redx Pharma Limited, priority 2010, dated 2015).
“And” between values parts separate entries of the source, which are not always exact repeats. Identical values can stand only once.

Sequences of proteins named here, by UniProt entry; tags and fusion partners are left off. A change or cut given only in a name is not applied to a line headed by its entry.
UniProt P01019: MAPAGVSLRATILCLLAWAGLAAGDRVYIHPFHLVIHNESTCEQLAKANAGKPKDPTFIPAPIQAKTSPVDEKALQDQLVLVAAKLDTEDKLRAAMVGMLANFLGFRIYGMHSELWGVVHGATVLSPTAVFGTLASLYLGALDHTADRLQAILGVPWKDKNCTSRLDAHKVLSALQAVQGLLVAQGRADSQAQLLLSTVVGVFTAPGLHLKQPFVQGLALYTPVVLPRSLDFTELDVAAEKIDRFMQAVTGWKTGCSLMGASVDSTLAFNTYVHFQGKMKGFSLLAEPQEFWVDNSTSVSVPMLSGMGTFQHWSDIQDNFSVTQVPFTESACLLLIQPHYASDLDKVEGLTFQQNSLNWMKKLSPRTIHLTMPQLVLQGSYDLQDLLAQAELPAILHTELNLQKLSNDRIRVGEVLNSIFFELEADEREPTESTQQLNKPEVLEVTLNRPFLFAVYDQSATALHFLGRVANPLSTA

Tested on: PathHunter NHRPro cell lines
Assay: PathHunter NHRPro cell assay, agonist format (Examples 90-92)
Type: cell-based
Details: AGTR1, Arrestin
Method: Methodology for Examples 90-92 Cell Handling
PathHunter NHRPro cell lines were expanded from freezer stocks in T25 flasks according to standard procedures and maintained in selective growth media prior to assay.
Once it was established that the cells were healthy and growing normally, cells were passaged from flasks using cell dissociation reagent and seeded into white walled clear bottom 384-well microplates for compound profiling.
For profiling, cells were seeded at a density of 10000 cells per well in a total volume of 20 μL and were allowed to adhere and recover overnight prior to compound addition. Media contained charcoal-dextran filtered serum to reduce the level of hormones present.
Intermediate dilution of compound stocks were generated such that 5 μL of 5× compound could be added to each well with a final DMSO concentration of 1% of total volume.
For profiling compound in agonist mode, the cells were incubated in the presence of compound at 37° C. for 5 hours.
After appropriate compound incubation, assay signal was generated through a single addition of 15 μL (50% v/v) of PathHunter Detection reagent cocktail for agonist and antagonist assays respectively followed by one hour incubation at room temperature.
Microplates were read following signal generation with a PerkinElmer Envision™ instrument for chemiluminescent signal detection.
Dose curves in the presence and absence of compound were plotted using GraphPad Prism or Activity Base.
For the agonist mode, percentage activity was calculated using the following formula: % Activity=100%×(Mean RLU of test sample−mean RLU of vehicle control)/(mean MAX RLU control ligand−mean RLU of vehicle control).

Molecule	Hill
Angiotensin II (DRVYIHPF; Angiotensin-2; UniProt P01019 25-32, looked up)	1.7

Same assay, conditions: AVPR2, Arrestin

Molecule	Curve Bottom	Curve Top	Hill
NC(=O)CC[C@@H]1NC(=O)[C@H](Cc2ccccc2)NC(=O)[C@H](Cc2ccc(O)cc2)NC(=O)[C@@H](N)CSSC[C@@H](C(=O)N2CCC[C@H]2C(=O)N[C@@H](CCCN=C(N)N)C(=O)NCC(N)=O)NC(=O)[C@H](CC(N)=O)NC1=O [Vasopressin]	−3.9	100.5	1.23

Same assay, conditions: RARβ, NHR Protein Interaction

Molecule	Curve Bottom	Curve Top	Hill
CC1=C(/C=C/C(C)=C\C=C\C(C)=C\C(=O)O)C(C)(C)CCC1 [9 Cis Retanoic acid]	0	100 and 108.3	0.87 and 1.21
COc1ccc(-c2ccc3cc(C(=O)O)ccc3c2)cc1C12CC3CC(CC(C3)C1)C2 [Adapalene]	0	134.9	1.02
COc1ccc(-c2ccc3cc(C=NO)ccc3c2)cc1C12CC3CC(CC(C3)C1)C2 [Compound 5a, 6-(3-(Adamantan-1-yl)-4-methoxyphenyl)-2-naphthaldehyde oxime]	6.5	45	0.71
CON=Cc1ccc2cc(-c3ccc(OC)c(C45CC6CC(CC(C6)C4)C5)c3)ccc2c1 [Compound 5b, 6-(3-(Adamantan-1-yl)-4-methoxyphenyl)-2-naphthaldehyde O-methyl oxime]	5.5	80	0.79
COc1ccc(-c2ccc3cc(C=O)ccc3c2)cc1C12CC3CC(CC(C3)C1)C2 [Formula 135; Z is C(O)H]	0	112.4	1.72
COc1ccc(-c2ccc3cc(CO)ccc3c2)cc1C12CC3CC(CC(C3)C1)C2 [Formula 135; Z is CH2OH]	0	127	1.16
